Experimental findings from paper PMC6901826 are described below.

Assay [1] addresses T1, TACI-L, FLAG-labeled (bait) or HA-labeled (prey) (UniProt O14836).
T1 sequence: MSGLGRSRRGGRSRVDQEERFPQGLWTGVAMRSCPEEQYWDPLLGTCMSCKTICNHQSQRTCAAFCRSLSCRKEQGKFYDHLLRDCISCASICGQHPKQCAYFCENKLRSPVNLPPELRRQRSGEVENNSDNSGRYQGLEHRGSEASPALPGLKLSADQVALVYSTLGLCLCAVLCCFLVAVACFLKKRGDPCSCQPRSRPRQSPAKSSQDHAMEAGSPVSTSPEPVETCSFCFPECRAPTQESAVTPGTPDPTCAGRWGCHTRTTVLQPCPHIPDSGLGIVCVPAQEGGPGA
Kind of assay: co-IP; HA-labeled and FLAG-labeled TACI transfected into HEK-293T cells; precipitated by FLAG, immunoblot with anti-HA.

Assay [2] addresses T2, TACI-L, YFP or mCherry labeled (UniProt O14836).
T2 sequence: T1 sequence
The experiment in a line: FRET or BRET; FRET read by FACS (LSRII) in HEK-293T cells co-transfected with YFP and mCherry labeled constructs, 48 h after transfection; at least 50,000 positive cells; CD40-eYFP as a control.

No constants are given. Whether binding was seen depends on the method and setting. In cells and extracts the contact can be indirect. Some results given as binding are weak or reduced against the parent protein; the word gives no strength. Sequences can lack the tags named with a protein.

B1: TACI-L, FLAG-labeled (bait) or HA-labeled (prey) (receptor, UniProt O14836 1-293)
chain: T1 sequence
As to B1, the binding entry in assay [1] is given as “binds”.

B2: TACI-S, YFP or mCherry labeled (receptor, UniProt O14836-2 1-247)
chain: MSGLGRSRRGGRSRVDQEERWSLSCRKEQGKFYDHLLRDCISCASICGQHPKQCAYFCENKLRSPVNLPPELRRQRSGEVENNSDNSGRYQGLEHRGSEASPALPGLKLSADQVALVYSTLGLCLCAVLCCFLVAVACFLKKRGDPCSCQPRSRPRQSPAKSSQDHAMEAGSPVSTSPEPVETCSFCFPECRAPTQESAVTPGTPDPTCAGRWGCHTRTTVLQPCPHIPDSGLGIVCVPAQEGGPGA
For the molecule B2, in assay [2], the binding entry was “binds”.

B3: HA-labeled TACI-S (receptor, UniProt O14836-2 1-247)
chain: B2 chain
With B3, the binding entry in assay [1] was “binds”.
